According to patent US20240018118A1, “TRICYCLIC COMPOUNDS TO DEGRADE NEOSUBSTRATES FOR MEDICAL THERAPY” (C 4 Therapeutics, Inc., priority 2020, published 2024):
Structures were worked out from names or drawings and are uncertain.

The chains behind the UniProt entries cited, without tags or fusion partners. Residues count along the entry.
UniProt Q96SW2, whole entry: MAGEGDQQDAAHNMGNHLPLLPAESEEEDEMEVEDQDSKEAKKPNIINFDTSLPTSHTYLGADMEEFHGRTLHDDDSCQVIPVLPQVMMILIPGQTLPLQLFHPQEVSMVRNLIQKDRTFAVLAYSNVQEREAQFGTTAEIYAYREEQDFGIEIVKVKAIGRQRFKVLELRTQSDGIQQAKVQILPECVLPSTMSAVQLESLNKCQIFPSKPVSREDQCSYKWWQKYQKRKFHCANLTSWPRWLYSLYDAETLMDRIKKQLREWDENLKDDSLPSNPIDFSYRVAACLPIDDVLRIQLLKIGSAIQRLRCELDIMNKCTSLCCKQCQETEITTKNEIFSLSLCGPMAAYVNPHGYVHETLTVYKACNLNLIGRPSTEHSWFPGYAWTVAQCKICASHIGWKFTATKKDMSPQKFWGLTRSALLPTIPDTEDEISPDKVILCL
UniProt Q9UJQ4, whole entry: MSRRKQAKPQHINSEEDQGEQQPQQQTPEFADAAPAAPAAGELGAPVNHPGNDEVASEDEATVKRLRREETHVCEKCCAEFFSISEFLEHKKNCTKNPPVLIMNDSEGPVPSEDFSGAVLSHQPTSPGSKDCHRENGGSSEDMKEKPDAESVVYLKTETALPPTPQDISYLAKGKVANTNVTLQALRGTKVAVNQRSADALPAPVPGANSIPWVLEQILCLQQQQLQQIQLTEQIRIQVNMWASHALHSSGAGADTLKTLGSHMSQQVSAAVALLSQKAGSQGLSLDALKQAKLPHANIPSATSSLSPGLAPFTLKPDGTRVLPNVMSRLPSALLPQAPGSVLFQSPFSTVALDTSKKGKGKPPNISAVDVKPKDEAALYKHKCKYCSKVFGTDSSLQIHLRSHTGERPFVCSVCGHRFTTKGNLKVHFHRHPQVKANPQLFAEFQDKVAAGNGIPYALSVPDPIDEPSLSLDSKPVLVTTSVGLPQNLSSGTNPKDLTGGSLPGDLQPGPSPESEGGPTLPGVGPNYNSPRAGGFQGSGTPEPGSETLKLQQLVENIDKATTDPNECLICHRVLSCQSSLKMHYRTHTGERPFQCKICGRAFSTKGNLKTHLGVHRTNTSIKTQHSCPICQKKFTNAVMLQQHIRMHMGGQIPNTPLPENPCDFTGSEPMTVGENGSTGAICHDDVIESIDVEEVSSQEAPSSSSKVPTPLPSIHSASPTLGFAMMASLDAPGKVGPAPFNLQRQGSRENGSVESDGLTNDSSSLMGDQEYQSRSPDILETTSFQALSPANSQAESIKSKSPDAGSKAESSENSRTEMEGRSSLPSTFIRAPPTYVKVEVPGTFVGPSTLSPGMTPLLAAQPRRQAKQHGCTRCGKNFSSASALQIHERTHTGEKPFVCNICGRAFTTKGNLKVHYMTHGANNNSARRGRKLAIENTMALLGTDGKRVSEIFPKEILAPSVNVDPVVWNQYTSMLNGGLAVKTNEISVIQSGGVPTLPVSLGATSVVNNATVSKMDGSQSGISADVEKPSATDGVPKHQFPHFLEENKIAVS
UniProt Q13422, whole entry: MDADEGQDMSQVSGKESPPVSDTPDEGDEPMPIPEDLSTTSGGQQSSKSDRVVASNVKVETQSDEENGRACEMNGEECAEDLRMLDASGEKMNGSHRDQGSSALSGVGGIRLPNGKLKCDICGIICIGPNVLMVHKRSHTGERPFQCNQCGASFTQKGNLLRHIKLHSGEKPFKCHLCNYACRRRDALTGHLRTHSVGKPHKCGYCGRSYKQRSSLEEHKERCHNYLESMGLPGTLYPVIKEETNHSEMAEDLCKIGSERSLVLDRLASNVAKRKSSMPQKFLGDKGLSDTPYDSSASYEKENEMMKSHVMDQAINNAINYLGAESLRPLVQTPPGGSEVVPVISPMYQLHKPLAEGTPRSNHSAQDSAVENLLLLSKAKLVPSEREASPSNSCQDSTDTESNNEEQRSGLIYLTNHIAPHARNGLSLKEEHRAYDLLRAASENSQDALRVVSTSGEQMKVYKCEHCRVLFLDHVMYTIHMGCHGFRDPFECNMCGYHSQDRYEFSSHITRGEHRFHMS
UniProt P15170, whole entry: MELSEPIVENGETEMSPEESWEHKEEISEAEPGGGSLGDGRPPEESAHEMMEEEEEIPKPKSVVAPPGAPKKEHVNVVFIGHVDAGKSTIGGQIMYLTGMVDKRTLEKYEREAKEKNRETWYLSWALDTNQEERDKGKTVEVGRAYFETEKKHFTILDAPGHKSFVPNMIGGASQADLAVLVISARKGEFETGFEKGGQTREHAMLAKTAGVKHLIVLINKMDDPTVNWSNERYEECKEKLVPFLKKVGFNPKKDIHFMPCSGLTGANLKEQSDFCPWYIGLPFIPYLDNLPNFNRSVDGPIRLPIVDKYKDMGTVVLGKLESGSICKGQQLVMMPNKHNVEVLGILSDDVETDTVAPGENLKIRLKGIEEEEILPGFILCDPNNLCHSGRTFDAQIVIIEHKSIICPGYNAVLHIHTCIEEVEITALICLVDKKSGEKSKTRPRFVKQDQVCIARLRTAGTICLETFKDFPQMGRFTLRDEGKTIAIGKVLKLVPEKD
UniProt Q16531, 2-1140 partner limits assumed: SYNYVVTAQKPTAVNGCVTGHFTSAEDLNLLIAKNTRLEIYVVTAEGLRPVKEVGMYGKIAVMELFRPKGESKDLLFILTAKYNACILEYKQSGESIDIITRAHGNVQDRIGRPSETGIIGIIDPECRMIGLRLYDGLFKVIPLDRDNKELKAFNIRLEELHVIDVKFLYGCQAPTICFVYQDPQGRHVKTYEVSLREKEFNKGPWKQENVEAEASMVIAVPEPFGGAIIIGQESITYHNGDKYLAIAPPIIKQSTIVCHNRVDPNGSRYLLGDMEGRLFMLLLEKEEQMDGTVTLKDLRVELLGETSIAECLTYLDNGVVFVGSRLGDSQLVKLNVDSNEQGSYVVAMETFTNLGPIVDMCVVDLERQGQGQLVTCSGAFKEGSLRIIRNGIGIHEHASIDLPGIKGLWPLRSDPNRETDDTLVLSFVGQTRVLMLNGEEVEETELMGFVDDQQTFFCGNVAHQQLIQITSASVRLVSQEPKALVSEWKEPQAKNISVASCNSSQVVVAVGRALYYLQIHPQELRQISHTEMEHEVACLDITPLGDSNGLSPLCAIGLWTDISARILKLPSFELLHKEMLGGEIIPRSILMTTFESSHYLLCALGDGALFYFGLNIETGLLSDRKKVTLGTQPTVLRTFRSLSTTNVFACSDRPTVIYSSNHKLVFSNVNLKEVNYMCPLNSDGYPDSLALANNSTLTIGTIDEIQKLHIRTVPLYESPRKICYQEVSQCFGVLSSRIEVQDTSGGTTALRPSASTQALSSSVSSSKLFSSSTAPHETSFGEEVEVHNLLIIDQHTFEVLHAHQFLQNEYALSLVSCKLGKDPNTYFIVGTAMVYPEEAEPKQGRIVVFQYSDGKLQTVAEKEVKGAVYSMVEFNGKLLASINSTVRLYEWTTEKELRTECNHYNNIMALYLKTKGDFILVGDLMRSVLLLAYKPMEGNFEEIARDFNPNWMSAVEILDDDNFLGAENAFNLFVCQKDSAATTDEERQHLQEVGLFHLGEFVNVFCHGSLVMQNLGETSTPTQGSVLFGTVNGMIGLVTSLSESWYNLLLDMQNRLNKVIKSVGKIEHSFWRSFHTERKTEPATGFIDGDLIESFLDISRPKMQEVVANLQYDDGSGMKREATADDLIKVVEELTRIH

Experiments:
[1] = molecular target: SALL4 (Homo sapiens, UniProt Q96SW2+Q9UJQ4); experiment: HiBiT degradation assay, KELLY.2 (SALL4-HiBiT) cells; conditions: for HiBiT-Degradation KELLY.2 SALL4 6 hours Emax: KELLY.2 cells; for DC50: read-out: HiBiT-Degradation KELLY.2 SALL4 6 hours DC50 nM, KELLY.2 cells
[2] = molecular target: IKZF1 (Homo sapiens, UniProt Q13422+Q96SW2); experiment: HiBiT degradation assay, NCIH929.11 (HiBiT-IKZF1) cells; conditions: for HiBiT-Degradation NCHI929.11 IKZF1 6 hours Emax: NCHI929.11 cells; for DC50: read-out: HiBiT-Degradation NCHI929.11 IKZF1 6 hours DC50 nM, NCHI929.11 cells
[3] = molecular target: GSPT1 (Homo sapiens, UniProt P15170+Q96SW2); experiment: HiBiT degradation assay, 293T.114 cells, GSPT1; conditions: for DC50: read-out: HiBiT-Degradation 293T.114 GSPT1 6 hours DC50 nM
[4] = molecular target: CRBN (Homo sapiens, UniProt Q96SW2); experiment: NanoBRET CRBN binding, 293T.116 cells; conditions: read-out: NanoBRET 293T.116 CRBN 2 hours IC50 nM

CC(C)(C)OC(=O)N1CCC(C)(n2cc(C(=O)c3ccc4c5c(cccc35)C(=O)N4C3CCC(=O)NC3=O)cn2)CC1 (stereo not shown)
HiBiT-Degradation KELLY.2 SALL4 6 hours Emax [1]: ++++ (<45% = ++++) | DC50 [1]: < 100 nM | HiBiT-Degradation NCHI929.11 IKZF1 6 hours Emax [2]: ++++ (<45% = ++++) | DC50 [2]: < 100 nM | HiBiT-Degradation 293T.114 GSPT1 6 hours Emax [3]: ++ (60-95% = ++) | DC50 [3]: > 10000 nM

Cc1ccc(F)c(CNCc2ccc3c4c(cccc24)N(C2CCC(=O)NC2=O)C3=O)c1 (stereo not shown)
IC50 [4]: < 100 nM | HiBiT-Degradation KELLY.2 SALL4 6 hours Emax [1]: ++++ (<45% = ++++) | DC50 [1]: < 100 nM | HiBiT-Degradation NCHI929.11 IKZF1 6 hours Emax [2]: +++ (45-60% = +++) | DC50 [2]: 1000 to 10000 nM | HiBiT-Degradation 293T.114 GSPT1 6 hours Emax [3]: ++ (60-95% = ++) | DC50 [3]: > 10000 nM
